# The list is a part of this screen's results and no random one: it is rich in T/C values a quarter to a half above the control, in often repeated tests (any T/C) and in doses without a T/C. Further doses and runs are listed elsewhere. T/C gives the treated animals as a percentage of the vehicle group. Some entries give survivors of the animals treated and no T/C: the source files T/C as zero there, which appears to mark a toxic dose or a test without result, not a measured value. Some survivor counts are full or nearly so, which does not show that the dose was tolerated: the source hardly ever lists a survival T/C far under the control, and the zero likely stands for such cases as well. Survivors were counted at the toxicity check, usually on the fifth day, unless a day is given; later deaths do not show. Schedules are NCI's codes, taken here to give the interval after Q, in days (D) or hours (H), and the number of doses after X. Some doses were run more than once; the results are listed from low to high. Where survival is the endpoint, this PubChem deposit counts one and a half times the control or more as active, and values a quarter to a half above the control carry no call in these data; other NCI protocols may use other cut-offs. Marks such as (2×) give the number of equal values in this list.
# System: P388 leukemia ip, CD2F1 mice, survival T/C
# Test: NCI In Vivo Anticancer Drug Screen. Data for tumor model P388 Leukemia (intraperitoneal) in CD2F1 (CDF1) mice
# Settings: T/C endpoint: median survival time, higher T/C = longer survival
# [1] = dose: 200.0 mg/kg/injection, schedule: Q01DX009 (ip), vehicle: saline with Tween-80
# [2] = dose: 100.0 mg/kg/injection, schedule: Q01DX005 (ip), vehicle: Klucel (hydroxypropylcellulose) (HPC)
# [3] = dose: 120.0 mg/kg/injection, schedule: Q01DX005 (ip), vehicle: saline with Tween-80
# [4] = dose: 240.0 mg/kg/injection, schedule: Q01DX005 (ip), vehicle: saline with Tween-80
# [5] = dose: 400.0 mg/kg/injection, schedule: Q01DX009 (ip), vehicle: Klucel (hydroxypropylcellulose) (HPC)
# [6] = dose: 200.0 mg/kg/injection, schedule: Q01DX009 (ip), vehicle: saline
# [7] = dose: 50.0 mg/kg/injection, schedule: Q01DX005 (ip), vehicle: Klucel (hydroxypropylcellulose) (HPC)
# [8] = dose: 240.0 mg/kg/injection, schedule: Q01DX005 (ip), vehicle: saline
# [9] = dose: 200.0 mg/kg/injection, schedule: Q01DX005 (ip), vehicle: Klucel (hydroxypropylcellulose) (HPC)
compound,measurement,setting,value
COc1ccc2c(c1OC(C)=O)-c1cc(OC(C)=O)cc3c1C(C2)N(C(=O)CN(CCCl)CCCl)CC3 (centres undefined),T/C,"dose: 3.13 mg/kg/injection, schedule: Q04DX003 (ip), vehicle: other",138 % of control
same,survivor count,"dose: 100.0 mg/kg/injection, schedule: Q04DX003 (ip), vehicle: DMSO",3 of 6
same,survivor count,"dose: 200.0 mg/kg/injection, schedule: Q04DX003 (ip), vehicle: DMSO",0 of 6
same,survivor count,"dose: 400.0 mg/kg/injection, schedule: Q04DX003 (ip), vehicle: DMSO",0 of 6
N/C(=N\S(=O)(=O)c1cc(C(F)(F)F)cc(C(F)(F)F)c1)c1ccncc1,survivor count,[1],4 of 6
COc1ccc(NS(=O)(=O)c2ccc(NC(=O)NCCCl)cc2)nn1,survivor count,[2],6 of 6
COC(=O)c1cc2cc3ccccc3cc2cc1C(=O)OC,survivor count,"dose: 60.0 mg/kg/injection, schedule: Q01DX005 (ip), vehicle: saline with Tween-80",6 of 6
same,survivor count,[3],6 of 6
same,survivor count,[4],6 of 6
CCC(c1ccc(OC)cc1)C(NCC(=O)N/N=C/c1ccccc1[N+](=O)[O-])c1ccc(OC)cc1 (centres undefined),survivor count,"dose: 100.0 mg/kg/injection, schedule: Q01DX001 (ip), vehicle: saline with Tween-80",6 of 6
same,survivor count,"dose: 200.0 mg/kg/injection, schedule: Q01DX001 (ip), vehicle: saline with Tween-80",6 of 6
O=C(Nc1ccccc1O)C1C(=O)C(=O)N(c2ccccc2O)C1=O (centres undefined),T/C,"dose: 200.0 mg/kg/injection, schedule: Q01DX009 (ip), vehicle: Klucel (hydroxypropylcellulose) (HPC)",125 and 128 % of control
same,survivor count,[5],2 of 6 and 3 of 6
COC(=O)C1CC23C4=C(CCC41)CCC1CN4CC(C)C(CC(OC(C)=O)C12COC(C)=O)C43O (centres undefined),survivor count,"dose: 12.5 mg/kg/injection, schedule: Q01DX009 (ip), vehicle: Klucel (hydroxypropylcellulose) (HPC)",6 of 6
same,survivor count,"dose: 25.0 mg/kg/injection, schedule: Q01DX009 (ip), vehicle: Klucel (hydroxypropylcellulose) (HPC)",6 of 6
same,survivor count,"dose: 50.0 mg/kg/injection, schedule: Q01DX009 (ip), vehicle: Klucel (hydroxypropylcellulose) (HPC)",6 of 6
same,survivor count,"dose: 100.0 mg/kg/injection, schedule: Q01DX009 (ip), vehicle: Klucel (hydroxypropylcellulose) (HPC)",6 of 6
CN(c1ccccc1)c1cc2nc3ccccc3nc2cc1O,survivor count,[6],6 of 6
CC1OC(OC2C(CO)OC(O[C@H]3CC[C@@]4(C)C(=CC[C@H]5[C@@H]6C[C@@H]7O[C@]8(CC[C@@H](C)CN8)[C@@H](C)[C@@H]7[C@@]6(C)CC[C@@H]54)C3)C(O)C2O)C(O)C(O)C1O (some centres undefined),survivor count,"dose: 100.0 mg/kg/injection, schedule: Q01DX005 (ip), vehicle: acid diluted with saline",5 of 6
same,survivor count,"dose: 200.0 mg/kg/injection, schedule: Q01DX005 (ip), vehicle: acid diluted with saline",3 of 6
CCN(CC)CC(O)c1c(OC)ccc2ccccc12 (centres undefined),survivor count,"dose: 100.0 mg/kg/injection, schedule: Q01DX005 (ip), vehicle: saline",0 of 5
same,survivor count,"dose: 200.0 mg/kg/injection, schedule: Q01DX005 (ip), vehicle: saline",0 of 5
N/C(Cc1noc2ccccc12)=N\O,survivor count,[6],3 of 6
O=C1C(c2cnccn2)=C(O)c2ccccc21,survivor count,[3],0 of 6
same,survivor count,[4],0 of 6
COC(=O)C1=C(C(=O)OC)P2(c3ccccc3)(c3ccccc3)N(c3ccccc3)C(=Nc3ccccc3)N2C1(c1ccccc1)c1ccccc1,survivor count,[7],6 of 6
CCN1C(=O)c2cccc([N+](=O)[O-])c2C1=O,survivor count,[5],1 of 5
CCN(CC)CCCNc1nnnc2ccccc12,survivor count,"dose: 400.0 mg/kg/injection, schedule: Q04DX002 (ip), vehicle: saline",1 of 6
CCC(=O)NC(CC(=O)O)c1cccs1 (centres undefined),survivor count,"dose: 50.0 mg/kg/injection, schedule: Q01DX009 (ip), vehicle: saline",6 of 6
O=C(C[n+]1ccn(CC(OCc2ccc(Cl)cc2Cl)c2ccc(Cl)cc2Cl)c1)c1ccc(F)cc1 (centres undefined),survivor count,"dose: 50.0 mg/kg/injection, schedule: Q01DX005 (ip), vehicle: saline with Tween-80",0 of 6
same,survivor count,"dose: 100.0 mg/kg/injection, schedule: Q01DX005 (ip), vehicle: saline with Tween-80",0 of 6
same,survivor count,"dose: 200.0 mg/kg/injection, schedule: Q01DX005 (ip), vehicle: saline with Tween-80",0 of 6
COCN(Cc1ccccc1)C[Si](C)(C)C,survivor count,"dose: 400.0 mg/kg/injection, schedule: Q01DX001 (ip), vehicle: saline with Tween-80",3 of 6
CC1=NN(c2cc(S(=O)(=O)O)ccc2Cl)C(=O)C1,survivor count,"dose: 400.0 mg/kg/injection, schedule: Q01DX009 (ip), vehicle: saline",5 of 6
CSCC(NP1(=O)SC(NN=C(C)C)=NC1(C)C)C(=O)O (centres undefined),survivor count,[8],0 of 6
CCCNc1nc(C)nc2[nH]cc(C)c12,survivor count,[9],0 of 6
O=C1c2ccccc2C(=O)N1OCc1csc(-c2ccccc2)n1,survivor count,[9],5 of 6
CCOC1CC2C(=O)C(CC)=C(OC)CC2(CC)CO1 (centres undefined),survivor count,[4],1 of 6
CNC(=S)N/N=C(\C)C(C)(C)C,survivor count,"dose: 200.0 mg/kg/injection, schedule: Q04DX003 (ip), vehicle: saline",2 of 6
same,survivor count,"dose: 400.0 mg/kg/injection, schedule: Q04DX003 (ip), vehicle: saline",0 of 6
Clc1nc2nc(Cl)c(Cl)n2c(Cl)c1Cl,survivor count,"dose: 400.0 mg/kg/injection, schedule: Q04DX002 (ip), vehicle: saline with Tween-80",0 of 6
Clc1ccc(CC(Cn2ccnc2)c2ccccc2Cl)cc1 (centres undefined),survivor count,[1],5 of 6
CCCCN(CCCC)c1ccc(C(=N)c2ccc(N(C)C)cc2)cc1,survivor count,"dose: 25.0 mg/kg/injection, schedule: Q01DX005 (ip), vehicle: Klucel (hydroxypropylcellulose) (HPC)",0 of 5
same,survivor count,[7],0 of 5
same,survivor count,[2],0 of 5
same,survivor count,[9],0 of 5
CC(=O)OC(C)/C=C\C#N (centres undefined),T/C,"dose: 60.0 mg/kg/injection, schedule: Q01DX005 (ip), vehicle: saline","97, 101, 105, 128 % of control"
same,survivor count,"dose: 120.0 mg/kg/injection, schedule: Q01DX005 (ip), vehicle: saline",0 of 6
same,survivor count,[8],0 of 6
CCOc1ccc(-n2cnc3c(=O)[nH]c(N)nc32)cc1,survivor count,[3],6 of 6
Cc1nc(C#N)c(=N)n(CCCO)c1-c1ccccc1,survivor count,[4],0 of 6
CC1(C)CC([P+](c2ccccc2)(c2ccccc2)c2ccccc2)=NN1,T/C,"dose: 3.12 mg/kg/injection, schedule: Q01DX009 (ip), vehicle: saline with Tween-80",130 % of control (2×)
same,T/C,"dose: 6.25 mg/kg/injection, schedule: Q01DX009 (ip), vehicle: saline with Tween-80",133 and 141 % of control
same,T/C,"dose: 12.5 mg/kg/injection, schedule: Q01DX009 (ip), vehicle: saline with Tween-80",133 % of control
same,survivor count,"dose: 25.0 mg/kg/injection, schedule: Q01DX009 (ip), vehicle: saline with Tween-80",3 of 6
same,survivor count,"dose: 50.0 mg/kg/injection, schedule: Q01DX001 (ip), vehicle: saline",1 of 6 and 5 of 6
same,survivor count,"dose: 100.0 mg/kg/injection, schedule: Q01DX001 (ip), vehicle: saline",1 of 6
same,survivor count,"dose: 200.0 mg/kg/injection, schedule: Q01DX001 (ip), vehicle: saline",0 of 6
Clc1ncccc1-n1cccc1/C=N\N=C/c1cccn1-c1cccnc1Cl,survivor count,[4],6 of 6
ClC1=CC=c2ccc3c(c2[N-]1)[N-]C(Cl)=CC=3.ClC1=CC=c2ccc3c(c2[N-]1)[N-]C(Cl)=CC=3.O=[N+]([O-])O.[Cu+],survivor count,"dose: 100.0 mg/kg/injection, schedule: Q04DX002 (ip), vehicle: suspension in saline",0 of 6
same,survivor count,"dose: 200.0 mg/kg/injection, schedule: Q04DX002 (ip), vehicle: suspension in saline",0 of 6
same,survivor count,"dose: 400.0 mg/kg/injection, schedule: Q04DX002 (ip), vehicle: suspension in saline",0 of 6
COc1cccc2c1C(=O)c1c(O)c3c(c(O)c1C2=O)CC(O)(C(=O)CO)CC3OC1CC(NCC2(O)OCC(O)C(O)C2O)C(O)C(C)O1 (centres undefined),T/C,"dose: 7.25 mg/kg/injection, schedule: Q04DX003 (ip), vehicle: water",142 % of control
NCC1CC2c3ccccc3C1c1ccccc12 (centres undefined),survivor count,[9],0 of 5
